# Reference: patent US20050075276A1, “Use of inhibitors of glycogen synthase-3 to augment CD28 dependent -T-cell responses” (priority 2003, published 2005)
# At least one compound was matched to its structure with a doubt left.
# System: CD28 induced phosphorylation of GSK-3 on Ser-9
# Experiment: CD28-induced GSK-3 phosphorylation, anti-phospho-GSK immunoblot in peripheral T-cells
# Type: cell-based, human
# Conditions: peripheral T-cells treated at 100 and 200 nM for 30 min, then anti-CD28; FIG. 2 lanes 5,6
structure (smiles),measurement,value
COC[C@H]1OC(=O)c2coc3c2[C@@]1(C)C1=C(C3=O)[C@@H]2CCC(=O)[C@@]2(C)C[C@H]1OC(C)=O [wortmannin],effect on CD28 induced phosphorylation of GSK-3 on Ser-9,partially decreased
